Measured values: article PMC10630842, “Impact of dietary plant flavonoids on 7,8‐dihydroxyflavone transepithelial transport in human intestinal Caco‐2 cells” (Food Science & Nutrition, 2023)

Test system: Caco‐2 cell monolayers
Assay: TEER of cell monolayers before and after transport experiments (monolayer integrity)
Assay type: cell-based, human
[1] = 7,8-DHF 10 μmol/L alone or with named inhibitor (flavonoid equimolar, verapamil 100 μmol/L)
[2] = 7,8-DHF+ flavonoid, molar ratios 1:2
[3] = 7,8-DHF+ flavonoid, molar ratios 1:4
[4] = 7,8-DHF+ flavonoid, molar ratios 2:1

Question: What does the source list for `O=c1cc(-c2ccccc2)oc2c(O)c(O)ccc12` [7,8‐DHF, 7,8‐Dihydroxyflavone]?
Answer: TEER, AP→BL, After transport [1]: 353.5±7.66 Ω•cm^2; TEER, AP→BL, Before transport [1]: 368.8±13.0 Ω•cm^2; TEER, BL→AP, After transport [1]: 333.3±5.52 Ω•cm^2; TEER, BL→AP, Before transport [1]: 349.2±3.75 Ω•cm^2

Question: Which results are given for `O=c1cc(-c2ccccc2)oc2cc(O)c(O)c(O)c12` [Baicalein, baicalein]?
Answer: TEER, AP→BL, After transport [1]: 340.9±27.3 Ω•cm^2; TEER, AP→BL, Before transport [1]: 405.9±12.9 Ω•cm^2; TEER, BL→AP, After transport [1]: 316.3±7.54 Ω•cm^2; TEER, BL→AP, Before transport [1]: 355.9±26.1 Ω•cm^2

Question: How did the “TEER, AP→BL, After transport” value [1] turn out when `COc1ccc(-c2coc3cc(O)cc(O)c3c2=O)cc1` [Biochanin A, biochanin A] was run?
Answer: 315.3±10.3 Ω•cm^2

Question: What about the “TEER, AP→BL, Before transport” value [1] of the same compound?
Answer: 331.9±8.62 Ω•cm^2

Question: And the “TEER, BL→AP, After transport” value [1]?
Answer: 312.5±15.4 Ω•cm^2

Question: And the “TEER, BL→AP, Before transport” value [1]?
Answer: 339.5±16.9 Ω•cm^2

Question: With `O=C(O[C@@H]1Cc2c(O)cc(O)cc2O[C@@H]1c1cc(O)c(O)c(O)c1)c1cc(O)c(O)c(O)c1` [EGCG, epigallocatechin gallate] as the compound, how does the “TEER, AP→BL, After transport” value [1] read?
Answer: 346.6±11.7 Ω•cm^2

Question: What about the “TEER, AP→BL, Before transport” value [1] of the same compound?
Answer: 372.9±19.6 Ω•cm^2

Question: And the “TEER, BL→AP, After transport” value [1]?
Answer: 337.2±20.5 Ω•cm^2

Question: And the “TEER, BL→AP, Before transport” value [1]?
Answer: 351.9±21.9 Ω•cm^2

Question: Which results are given for `O=c1c(O)c(-c2ccc(O)c(O)c2)oc2cc(O)ccc12` [Fisetin, fisetin]?
Answer: TEER, AP→BL, After transport [1]: 310.1±8.31 Ω•cm^2; TEER, AP→BL, Before transport [1]: 339.9±22.9 Ω•cm^2; TEER, BL→AP, After transport [1]: 311.9±7.54 Ω•cm^2; TEER, BL→AP, Before transport [1]: 323.3±8.90 Ω•cm^2

Question: What does the source list for `O=c1c(-c2ccc(O)cc2)coc2cc(O)cc(O)c12` [Genistein, genistein]?
Answer: TEER, AP→BL, After transport [1]: 329.5±15.3 Ω•cm^2; TEER, AP→BL, Before transport [1]: 351.8±19.6 Ω•cm^2; TEER, BL→AP, After transport [1]: 319.6±14.3 Ω•cm^2; TEER, BL→AP, Before transport [1]: 337.3±18.7 Ω•cm^2

Question: How did the “TEER, AP→BL, After transport” value [1] turn out when `COc1ccc([C@@H]2CC(=O)c3c(O)cc(O)cc3O2)cc1O` [Hesperetin, hesperetin] was run?
Answer: 326.2±24.7 Ω•cm^2

Question: What about the “TEER, AP→BL, Before transport” value [1] of the same compound?
Answer: 339.9±21.0 Ω•cm^2

Question: What about the “TEER, BL→AP, After transport” value [1] of the same compound?
Answer: 312.9±3.31 Ω•cm^2

Question: And the “TEER, BL→AP, Before transport” value [1]?
Answer: 336.9±10.9 Ω•cm^2

Question: How did the “TEER, AP→BL, After transport” value [1] turn out when `O=c1cc(-c2ccc(O)c(O)c2)oc2cc(O)c([C@@H]3O[C@H](CO)[C@@H](O)[C@H](O)[C@H]3O)c(O)c12` [Isoorientin, isoorientin] was run?
Answer: 322.0±16.6 Ω•cm^2

Question: What about the “TEER, AP→BL, Before transport” value [1] of the same compound?
Answer: 349.3±21.9 Ω•cm^2

Question: And the “TEER, BL→AP, After transport” value [1]?
Answer: 321.2±16.4 Ω•cm^2

Question: And the “TEER, BL→AP, Before transport” value [1]?
Answer: 333.8±26.6 Ω•cm^2

Question: `O=c1cc(-c2ccc(O)cc2)oc2cc(O)c([C@@H]3O[C@H](CO)[C@@H](O)[C@H](O)[C@H]3O)c(O)c12` [Isovitexin, isovitexin] was tested. Which “TEER, AP→BL, After transport” value [1] did it give?
Answer: 311.4±7.84 Ω•cm^2

Question: What about the “TEER, AP→BL, Before transport” value [1] of the same compound?
Answer: 321.3±8.20 Ω•cm^2

Question: What about the “TEER, BL→AP, After transport” value [1] of the same compound?
Answer: 374.2±18.7 Ω•cm^2

Question: And the “TEER, BL→AP, Before transport” value [1]?
Answer: 340.0±26.9 Ω•cm^2

Question: What does the source list for `O=c1c(O)c(-c2ccc(O)cc2)oc2cc(O)cc(O)c12` [Kaempferol, kaempferol]?
Answer: TEER, AP→BL, After transport [1]: 312.5±13.3 Ω•cm^2; TEER, AP→BL, Before transport [1]: 337.6±36.7 Ω•cm^2; TEER, BL→AP, After transport [1]: 368.2±11.8 Ω•cm^2; TEER, BL→AP, Before transport [1]: 387.9±18.4 Ω•cm^2; TEER, AP→BL, After transport [2]: 320.9±16.5 Ω•cm^2; TEER, AP→BL, Before transport [2]: 338.6±21.4 Ω•cm^2; TEER, BL→AP, After transport [2]: 326.9±19.1 Ω•cm^2; TEER, BL→AP, Before transport [2]: 351.2±24.4 Ω•cm^2; TEER, AP→BL, After transport [3]: 355.2±22.8 Ω•cm^2; TEER, AP→BL, Before transport [3]: 400.83±26.5 Ω•cm^2; TEER, BL→AP, After transport [3]: 326.9±13.0 Ω•cm^2; TEER, BL→AP, Before transport [3]: 358.2±19.3 Ω•cm^2; TEER, AP→BL, After transport [4]: 333.3±25.9 Ω•cm^2; TEER, AP→BL, Before transport [4]: 353.2±29.9 Ω•cm^2; TEER, BL→AP, After transport [4]: 325.3±16.8 Ω•cm^2; TEER, BL→AP, Before transport [4]: 370.8±12.3 Ω•cm^2

Question: With `O=c1c(O)c(-c2cc(O)c(O)c(O)c2)oc2cc(O)cc(O)c12` [Myricetin, myricetin] as the compound, how does the “TEER, AP→BL, After transport” value [1] read?
Answer: 321.9±10.7 Ω•cm^2

Question: What about the “TEER, AP→BL, Before transport” value [1] of the same compound?
Answer: 331.1±10.7 Ω•cm^2

Question: And the “TEER, BL→AP, After transport” value [1]?
Answer: 324.3±12.3 Ω•cm^2

Question: And the “TEER, BL→AP, Before transport” value [1]?
Answer: 384.0±17.3 Ω•cm^2

Question: Which results are given for `O=C1C[C@@H](c2ccc(O)cc2)Oc2cc(O)cc(O)c21` [Naringenin, naringenin]?
Answer: TEER, AP→BL, After transport [1]: 336.9±18.6 Ω•cm^2; TEER, AP→BL, Before transport [1]: 363.3±15.6 Ω•cm^2; TEER, BL→AP, After transport [1]: 325.7±16.3 Ω•cm^2; TEER, BL→AP, Before transport [1]: 367.6±16.0 Ω•cm^2

Question: How did the “TEER, AP→BL, After transport” value [1] turn out when `O=c1cc(-c2ccc(O)c(O)c2)oc2c([C@@H]3O[C@H](CO)[C@@H](O)[C@H](O)[C@H]3O)c(O)cc(O)c12` [Orientin] was run?
Answer: 346.2±31.0 Ω•cm^2

Question: What about the “TEER, AP→BL, Before transport” value [1] of the same compound?
Answer: 400.93±24.3 Ω•cm^2

Question: And the “TEER, BL→AP, After transport” value [1]?
Answer: 323.2±17.5 Ω•cm^2

Question: What about the “TEER, BL→AP, Before transport” value [1] of the same compound?
Answer: 352.2±27.8 Ω•cm^2

Question: Which results are given for `O=c1c(O)c(-c2ccc(O)c(O)c2)oc2cc(O)cc(O)c12` [Quercetin, quercetin]?
Answer: TEER, AP→BL, After transport [1]: 322.0±14.9 Ω•cm^2; TEER, AP→BL, Before transport [1]: 350.8±22.1 Ω•cm^2; TEER, BL→AP, After transport [1]: 366.0±31.6 Ω•cm^2; TEER, BL→AP, Before transport [1]: 409.9±28.0 Ω•cm^2; TEER, AP→BL, After transport [2]: 316.6±12.2 Ω•cm^2; TEER, AP→BL, Before transport [2]: 335.2±26.4 Ω•cm^2; TEER, BL→AP, After transport [2]: 326.5±29.4 Ω•cm^2; TEER, BL→AP, Before transport [2]: 446.6±39.3 Ω•cm^2; TEER, AP→BL, After transport [3]: 337.2±20.4 Ω•cm^2; TEER, AP→BL, Before transport [3]: 350.2±27.5 Ω•cm^2; TEER, BL→AP, After transport [3]: 330.9±17.9 Ω•cm^2; TEER, BL→AP, Before transport [3]: 443.6±38.1 Ω•cm^2; TEER, AP→BL, After transport [4]: 319.9±25.7 Ω•cm^2; TEER, AP→BL, Before transport [4]: 338.3±27.7 Ω•cm^2; TEER, BL→AP, After transport [4]: 348.9±17.0 Ω•cm^2; TEER, BL→AP, Before transport [4]: 392.3±26.4 Ω•cm^2

Question: What does the source list for `O=c1cc(-c2ccc(O)cc2)oc2c([C@@H]3O[C@H](CO)[C@@H](O)[C@H](O)[C@H]3O)c(O)cc(O)c12` [Vitexin, vitexin]?
Answer: TEER, AP→BL, After transport [1]: 317.6±17.8 Ω•cm^2; TEER, AP→BL, Before transport [1]: 334.9±22.1 Ω•cm^2; TEER, BL→AP, After transport [1]: 318.9±13.6 Ω•cm^2; TEER, BL→AP, Before transport [1]: 410.7±23.2 Ω•cm^2
